Test results: publication PMC7840522, “Ca14-3-3 Interacts With CaWRKY58 to Positively Modulate Pepper Response to Low-Phosphorus Starvation”

Molecular target: CaWRKY58-6xHis (Capsicum annuum) (UniProt Q5DJV3)
Assay: EMSA
Conditions: Cy5 probes, Odyssey CLX; recombinant protein; protein details: 6xHis (pDEST17, text says N-terminal 6xHis); label: Cy5; probe letters rebuilt from the primers and the genome

CATTTGAGGGTTTAGCATGTAACTATCATGCAGCTTCTGCATTTGCTGAATTTTCACCATTGATAAAACTATGCTTGACCATCTAAATTTTCCTATTATAAGGCAAGAAATTATCTTGTATACTCCTGTTCAGTTGTAGCATGCTTGTTG (double strand) [CaPHR1-P (CaPHR1-Pcy5)]
binding result: binds

Construct, isoform or probe ends are uncertain for at least one entry.
